In assay [1] the target is T1, VeA-HA (A. nidulans Velvet A with HA tag) (Aspergillus nidulans) (UniProt C8VTV4).
T1 sequence: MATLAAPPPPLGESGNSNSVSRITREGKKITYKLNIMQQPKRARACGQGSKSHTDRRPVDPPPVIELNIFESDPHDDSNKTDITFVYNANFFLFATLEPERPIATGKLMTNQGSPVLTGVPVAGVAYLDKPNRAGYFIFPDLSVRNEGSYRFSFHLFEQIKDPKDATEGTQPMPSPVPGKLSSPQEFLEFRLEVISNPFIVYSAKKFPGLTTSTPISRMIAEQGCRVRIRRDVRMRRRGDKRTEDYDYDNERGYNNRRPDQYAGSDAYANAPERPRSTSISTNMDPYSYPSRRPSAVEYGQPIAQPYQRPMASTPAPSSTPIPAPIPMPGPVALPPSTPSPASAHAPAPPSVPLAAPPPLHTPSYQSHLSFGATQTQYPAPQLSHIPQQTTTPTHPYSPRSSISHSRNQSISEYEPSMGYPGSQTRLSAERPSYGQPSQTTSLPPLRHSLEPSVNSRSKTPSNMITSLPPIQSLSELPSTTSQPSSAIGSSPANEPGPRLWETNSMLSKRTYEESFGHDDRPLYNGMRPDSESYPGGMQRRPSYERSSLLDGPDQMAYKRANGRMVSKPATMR
Description: co-IP.

Sequences of proteins named here, by UniProt entry; tags and fusion partners are left off.
UniProt C8VTS4: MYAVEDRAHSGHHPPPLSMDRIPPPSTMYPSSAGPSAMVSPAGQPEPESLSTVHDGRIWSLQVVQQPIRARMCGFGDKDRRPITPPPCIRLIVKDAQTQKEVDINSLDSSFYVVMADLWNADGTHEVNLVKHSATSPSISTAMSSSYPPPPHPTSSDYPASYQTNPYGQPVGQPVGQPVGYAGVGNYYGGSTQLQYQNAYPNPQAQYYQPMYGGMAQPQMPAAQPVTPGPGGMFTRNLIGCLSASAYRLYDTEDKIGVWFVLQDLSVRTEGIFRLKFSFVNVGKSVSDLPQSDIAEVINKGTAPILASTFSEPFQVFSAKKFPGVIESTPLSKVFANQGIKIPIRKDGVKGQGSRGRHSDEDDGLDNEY

Assay [2] addresses T2, VosA-HA (A. nidulans VosA with HA tag) (Aspergillus nidulans) (UniProt Q5BBX1).
T2 sequence: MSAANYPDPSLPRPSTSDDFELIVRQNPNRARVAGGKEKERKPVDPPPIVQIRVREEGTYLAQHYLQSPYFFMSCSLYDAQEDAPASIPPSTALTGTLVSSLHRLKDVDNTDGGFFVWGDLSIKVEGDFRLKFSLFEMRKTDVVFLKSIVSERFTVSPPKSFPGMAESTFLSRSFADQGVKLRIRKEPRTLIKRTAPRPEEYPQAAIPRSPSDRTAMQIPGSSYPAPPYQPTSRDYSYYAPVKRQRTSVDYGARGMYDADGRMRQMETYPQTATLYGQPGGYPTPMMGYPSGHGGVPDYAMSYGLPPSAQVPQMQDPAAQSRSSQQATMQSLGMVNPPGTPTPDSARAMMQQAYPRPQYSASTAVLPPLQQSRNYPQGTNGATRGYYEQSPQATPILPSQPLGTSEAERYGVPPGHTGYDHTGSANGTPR
Description: co-IP.

The target of assay [3] is T3, VosA-GST (full length A. nidulans VosA fused to GST) (Aspergillus nidulans) (UniProt Q5BBX1).
T3 sequence: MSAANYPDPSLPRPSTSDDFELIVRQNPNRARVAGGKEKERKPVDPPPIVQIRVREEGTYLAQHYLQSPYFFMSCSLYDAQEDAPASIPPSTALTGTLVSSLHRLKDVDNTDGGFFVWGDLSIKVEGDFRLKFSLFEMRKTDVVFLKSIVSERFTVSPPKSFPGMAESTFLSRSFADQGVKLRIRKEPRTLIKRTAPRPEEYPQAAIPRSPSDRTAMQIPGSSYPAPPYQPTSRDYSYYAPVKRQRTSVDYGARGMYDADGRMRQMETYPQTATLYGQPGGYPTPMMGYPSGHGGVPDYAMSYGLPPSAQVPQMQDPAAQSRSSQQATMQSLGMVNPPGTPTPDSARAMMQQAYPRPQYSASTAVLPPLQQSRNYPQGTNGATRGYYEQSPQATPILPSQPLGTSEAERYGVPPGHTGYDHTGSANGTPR
The assay is described as follows: pull-down.

Assay [4] has as its target VelB-GFP (full length A. nidulans Velvet-like B fused to GFP) (Aspergillus nidulans) (UniProt C8VTS4). Description: co-IP.

These results are taken from doi:10.1101/2025.02.27.640524 (bioRxiv, 2025).

Results are given in words; binding and its absence hold for the method and conditions named. In cells and extracts the contact can be indirect. Some entries that bind do so weakly or less than the wild type. Where a sequence is shown, tags or fusion partners need not be part of it.

Consider “VelB-GFP (full length A. nidulans Velvet-like B fused to GFP) (from UniProt C8VTS4 1-369)”, for which the binding entry in assay [1] and in assay [2] was “binds” each time.
On to “VelB-His (full length A. nidulans VelB with His tag) (from UniProt C8VTS4 1-369)”, for which the binding result in assay [3] was “binds”.

B1: VosA-HA (A. nidulans VosA with HA tag) (natural protein)
chain: MSAANYPDPSLPRPSTSDDFELIVRQNPNRARVAGGKEKERKPVDPPPIVQIRVREEGTYLAQHYLQSPYFFMSCSLYDAQEDAPASIPPSTALTGTLVSSLHRLKDVDNTDGGFFVWGDLSIKVEGDFRLKFSLFEMRKTDVVFLKSIVSERFTVSPPKSFPGMAESTFLSRSFADQGVKLRIRKEPRTLIKRTAPRPEEYPQAAIPRSPSDRTAMQIPGSSYPAPPYQPTSRDYSYYAPVKRQRTSVDYGARGMYDADGRMRQMETYPQTATLYGQPGGYPTPMMGYPSGHGGVPDYAMSYGLPPSAQVPQMQDPAAQSRSSQQATMQSLGMVNPPGTPTPDSARAMMQQAYPRPQYSASTAVLPPLQQSRNYPQGTNGATRGYYEQSPQATPILPSQPLGTSEAERYGVPPGHTGYDHTGSANGTPR
Take B1: the binding result in assay [4] is on record as “binds”.

B2: VeA-HA (A. nidulans Velvet A with HA tag) (protein, UniProt C8VTV4 1-573)
chain: MATLAAPPPPLGESGNSNSVSRITREGKKITYKLNIMQQPKRARACGQGSKSHTDRRPVDPPPVIELNIFESDPHDDSNKTDITFVYNANFFLFATLEPERPIATGKLMTNQGSPVLTGVPVAGVAYLDKPNRAGYFIFPDLSVRNEGSYRFSFHLFEQIKDPKDATEGTQPMPSPVPGKLSSPQEFLEFRLEVISNPFIVYSAKKFPGLTTSTPISRMIAEQGCRVRIRRDVRMRRRGDKRTEDYDYDNERGYNNRRPDQYAGSDAYANAPERPRSTSISTNMDPYSYPSRRPSAVEYGQPIAQPYQRPMASTPAPSSTPIPAPIPMPGPVALPPSTPSPASAHAPAPPSVPLAAPPPLHTPSYQSHLSFGATQTQYPAPQLSHIPQQTTTPTHPYSPRSSISHSRNQSISEYEPSMGYPGSQTRLSAERPSYGQPSQTTSLPPLRHSLEPSVNSRSKTPSNMITSLPPIQSLSELPSTTSQPSSAIGSSPANEPGPRLWETNSMLSKRTYEESFGHDDRPLYNGMRPDSESYPGGMQRRPSYERSSLLDGPDQMAYKRANGRMVSKPATMR
As for B2, the binding entry in assay [4] is on record as “binds”.
